pEC50: −log10 of the molar value. Some results were stated once for a whole list of compounds, not compound by compound. At least one compound was matched to its structure with a doubt left.
Tested on: PPARα, PPARγ or PPARδ
Test: PPAR activity assays (biochemical and cell based)
Details: at least one of these assays, or a similar assay, for at least one of PPARα

Compound | pEC50
COc1cc(CC(=O)O)cc(Oc2cccc(-c3ccc(F)c(Cl)c3)c2)c1 [P-0042, [3-(3′-Chloro-4′-fluoro-biphenyl-3-yloxy)-5-methoxy-phenyl]-acetic acid] | ≥ 6.00
COc1cc(CC(=O)O)cc(Oc2cccc(-c3ccc(OC(F)(F)F)cc3)c2)c1 [P-0046, [3-Methoxy-5-(4′-trifluoromethoxy-biphenyl-3-yloxy)-phenyl]-acetic acid] | ≥ 6.00
Cc1cc(F)ccc1-c1cccc(Oc2cccc(CC(=O)O)c2)c1 [P-0107, [3-(4′-Fluoro-2′-methyl-biphenyl-3-yloxy)-phenyl]-acetic acid] | ≥ 6.00
COc1cc(CC(=O)O)cc(Oc2cccc(-c3ccc(OCc4ccccc4)cc3F)c2)c1 [P-0070, [3-(4′-Benzyloxy-2′-fluoro-biphenyl-3-yloxy)-5-methoxy-phenyl]-acetic acid] | ≥ 6.00
O=C(O)Cc1cccc(Oc2cccc(-c3ccc(Cl)c(Cl)c3)c2)c1 [P-0117, [3-(3′,4′-Dichloro-biphenyl-3-yloxy)-phenyl]-acetic acid] | ≥ 6.00
Cc1cc(Cl)ccc1-c1cccc(S(=O)(=O)c2cccc(CC(=O)O)c2)c1 [P-0083, [3-(4′-Chloro-2′-methyl-biphenyl-3-sulfonyl)-phenyl]-acetic acid] | ≥ 6.00
CCOc1ccc(-c2cccc(Oc3cccc(CC(=O)O)c3)c2)c(C)c1 [P-0125, [3-(4′-Ethoxy-2′-methyl-biphenyl-3-yloxy)-phenyl]-acetic acid] | ≥ 6.00
O=C(O)Cc1cccc(S(=O)(=O)c2cccc(-c3ccc(OC(F)(F)F)cc3)c2)c1 [P-0034, [3-(4′-Trifluoromethoxy-biphenyl-3-sulfonyl)-phenyl]-acetic acid] | ≥ 6.00
COc1cc(CC(=O)O)cc(Oc2cccc(-c3ccc(Cl)cc3F)c2)c1 [P-0071, [3-(4′-Chloro-2′-fluoro-biphenyl-3-yloxy)-5-methoxy-phenyl]-acetic acid] | ≥ 6.00
COc1cc(CC(=O)O)cc(S(=O)(=O)c2cccc(-c3ccc(C(F)(F)F)cc3Cl)c2)c1 [P-0091, [3-(2′-Chloro-4′-trifluoromethyl-biphenyl-3-sulfonyl)-5-methoxy-phenyl]-acetic acid] | ≥ 6.00
O=C(O)Cc1cc(Cl)cc(S(=O)(=O)c2cccc(-c3ccc(C(F)(F)F)cc3)c2)c1 [P-0090, [3-chloro-5-(4′-trifluoromethyl-biphenyl-3-sulfonyl)-phenyl]-acetic acid] | ≥ 6.00
O=C(O)Cc1cccc(Oc2cccc(-c3ccc(Cl)cc3)c2)c1 [P-0051, [3-(4′-Chloro-biphenyl-3-yloxy)-phenyl]-acetic acid] | ≥ 6.00
COc1cc(CC(=O)O)cc(Oc2cccc(-c3ccc(C(F)(F)F)cc3F)c2)c1 [P-0078, [3-(2′-Fluoro-4′-trifluoromethyl-biphenyl-3-yloxy)-5-methoxy-phenyl]-acetic acid] | ≥ 6.00
O=C(O)Cc1cccc(Oc2cccc(-c3ccc(Cl)cc3Cl)c2)c1 [P-0115, [3-(2′,4′-Dichloro-biphenyl-3-yloxy)-phenyl]-acetic acid] | ≥ 6.00
O=C(O)Cc1cccc(Oc2cccc(-c3ccc(F)c(C(F)(F)F)c3)c2)c1 [P-0118, [3-(4′-Fluoro-3′-trifluoromethyl-biphenyl-3-yloxy)-phenyl]-acetic acid] | ≥ 6.00
CCOc1ccc(-c2cccc(S(=O)(=O)c3cccc(CC(=O)O)c3)c2)cc1 [P-0031, [3-(4′-Ethoxy-biphenyl-3-sulfonyl)-phenyl]-acetic acid] | ≥ 6.00

Compound | pEC50
COc1cc(CC(=O)O)cc(Oc2cccc(-c3ccc(Cl)cc3C)c2)c1 [P-0104, [3-(4′-Chloro-2′-methyl-biphenyl-3-yloxy)-5-methoxy-phenyl]-acetic acid] | ≥ 6.00
COc1cc(CC(=O)O)cc(Oc2cccc(-c3ccc(C(F)(F)F)cc3Cl)c2)c1 [P-0110, [3-(2′-Chloro-4′-trifluoromethyl-biphenyl-3-yloxy)-5-methoxy-phenyl]-acetic acid] | ≥ 6.00
COc1cc(CC(=O)O)cc(Oc2cccc(-c3ccc(F)c(C(F)(F)F)c3)c2)c1 [P-0103, [3-(4′-Fluoro-3′-trifluoromethyl-biphenyl-3-yloxy)-5-methoxy-phenyl]-acetic acid] | ≥ 6.00
COc1cc(CC(=O)O)cc(Oc2cccc(-c3ccc(F)cc3F)c2)c1 [P-0068, [3-(2′,4′-Difluoro-biphenyl-3-yloxy)-5-methoxy-phenyl]-acetic acid] | ≥ 6.00
O=C(O)Cc1cccc(Oc2cccc(-c3ccc(C(F)(F)F)cc3Cl)c2)c1 [P-0112, [3-(2′-Chloro-4′-trifluoromethyl-biphenyl-3-yloxy)-phenyl]-acetic acid] | ≥ 6.00
O=C(O)Cc1cccc(S(=O)(=O)c2cccc(-c3ccc(Cl)cc3F)c2)c1 [P-0067, [3-(4′-Chloro-2′-fluoro-biphenyl-3-sulfonyl)-phenyl]-acetic acid] | ≥ 6.00
O=C(O)Cc1cccc(Oc2cccc(-c3ccc(OCc4ccccc4)cc3F)c2)c1 [P-0074, [3-(4′-Benzyloxy-2′-fluoro-biphenyl-3-yloxy)-phenyl]-acetic acid] | ≥ 6.00
COc1cc(CC(=O)O)cc(Oc2cccc(-c3cccc(OC(F)(F)F)c3)c2)c1 [P-0045, [3-Methoxy-5-(3′-trifluoromethoxy-biphenyl-3-yloxy)-phenyl]-acetic acid] | ≥ 6.00
COc1cc(CC(=O)O)cc(Oc2cccc(-c3ccc(F)cc3C)c2)c1 [P-0097, [3-(4′-Fluoro-2′-methyl-biphenyl-3-yloxy)-5-methoxy-phenyl]-acetic acid] | ≥ 6.00
COc1cc(CC(=O)O)cc(Oc2cccc(-c3ccc(F)c(F)c3)c2)c1 [P-0098, [3-(3′,4′-Difluoro-biphenyl-3-yloxy)-5-methoxy-phenyl]-acetic acid] | ≥ 6.00
COc1cc(CC(=O)O)cc(Oc2cccc(-c3cc(Cl)ccc3F)c2)c1 [P-0111, [3-(5′-Chloro-2′-fluoro-biphenyl-3-yloxy)-5-methoxy-phenyl]-acetic acid] | ≥ 6.00
Cc1cc(F)ccc1-c1cccc(S(=O)(=O)c2cccc(CC(=O)O)c2)c1 [P-0081, [3-(4′-Fluoro-2′-methyl-biphenyl-3-sulfonyl)-phenyl]-acetic acid] | ≥ 6.00
O=C(O)Cc1cccc(S(=O)(=O)c2cccc(-c3ccc(Cl)cc3)c2)c1 [P-0028, [3-(4′-Chloro-biphenyl-3-sulfonyl)-phenyl]-acetic acid] | ≥ 6.00
COc1cc(CC(=O)O)cc(Oc2cccc(-c3ccc(F)c(C)c3)c2)c1 [P-0100, [3-(4′-Fluoro-3′-methyl-biphenyl-3-yloxy)-5-methoxy-phenyl]-acetic acid] | ≥ 6.00
CCOc1ccc(-c2cccc(S(=O)(=O)c3cccc(CC(=O)O)c3)c2)c(C)c1 [P-0085, [3-(4′-Ethoxy-2′-methyl-biphenyl-3-sulfonyl)-phenyl]-acetic acid] | ≥ 6.00
CCOc1ccc(-c2cccc(Oc3cccc(CC(=O)O)c3)c2)c(Cl)c1 [P-0124, [3-(2′-Chloro-4′-ethoxy-biphenyl-3-yloxy)-phenyl]-acetic acid] | ≥ 6.00
